# Measured values reported in the supplement of paper PMC12067093, “Discovery and optimisation of a covalent ligand for TRIM25 and its application to targeted protein ubiquitination” (Chemical Science, 2025).
# The chains behind the UniProt entries cited, without tags or fusion partners. Where a name states a change or a piece, a line headed by the entry shows the natural chain unless it says otherwise.
# UniProt Q9ULX6: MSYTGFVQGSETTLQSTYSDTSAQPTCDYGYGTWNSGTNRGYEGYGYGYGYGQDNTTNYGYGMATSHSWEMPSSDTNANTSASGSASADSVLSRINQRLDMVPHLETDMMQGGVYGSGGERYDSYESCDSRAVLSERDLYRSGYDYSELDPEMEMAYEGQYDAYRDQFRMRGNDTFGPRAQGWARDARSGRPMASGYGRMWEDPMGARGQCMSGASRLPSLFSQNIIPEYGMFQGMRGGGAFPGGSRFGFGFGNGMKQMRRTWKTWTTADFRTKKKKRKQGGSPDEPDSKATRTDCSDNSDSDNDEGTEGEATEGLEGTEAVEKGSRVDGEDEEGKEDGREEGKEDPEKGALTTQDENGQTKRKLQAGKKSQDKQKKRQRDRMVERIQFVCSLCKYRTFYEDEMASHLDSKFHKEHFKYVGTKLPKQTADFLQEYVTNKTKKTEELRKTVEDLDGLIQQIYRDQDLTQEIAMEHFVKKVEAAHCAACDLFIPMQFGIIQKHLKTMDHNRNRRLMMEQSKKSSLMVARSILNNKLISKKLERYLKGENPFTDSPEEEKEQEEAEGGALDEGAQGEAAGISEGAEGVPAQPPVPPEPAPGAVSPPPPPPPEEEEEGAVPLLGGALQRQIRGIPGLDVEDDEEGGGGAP
# UniProt O00170: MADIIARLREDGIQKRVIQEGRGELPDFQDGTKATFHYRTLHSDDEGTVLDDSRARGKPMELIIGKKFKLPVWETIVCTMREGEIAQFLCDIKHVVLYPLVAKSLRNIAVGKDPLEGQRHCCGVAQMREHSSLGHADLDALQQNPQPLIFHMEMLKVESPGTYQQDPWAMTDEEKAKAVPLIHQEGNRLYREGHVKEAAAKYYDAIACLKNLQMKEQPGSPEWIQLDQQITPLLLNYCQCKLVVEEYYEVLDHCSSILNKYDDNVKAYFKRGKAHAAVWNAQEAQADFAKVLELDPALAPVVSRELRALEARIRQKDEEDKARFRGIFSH
# UniProt Q8IZ83: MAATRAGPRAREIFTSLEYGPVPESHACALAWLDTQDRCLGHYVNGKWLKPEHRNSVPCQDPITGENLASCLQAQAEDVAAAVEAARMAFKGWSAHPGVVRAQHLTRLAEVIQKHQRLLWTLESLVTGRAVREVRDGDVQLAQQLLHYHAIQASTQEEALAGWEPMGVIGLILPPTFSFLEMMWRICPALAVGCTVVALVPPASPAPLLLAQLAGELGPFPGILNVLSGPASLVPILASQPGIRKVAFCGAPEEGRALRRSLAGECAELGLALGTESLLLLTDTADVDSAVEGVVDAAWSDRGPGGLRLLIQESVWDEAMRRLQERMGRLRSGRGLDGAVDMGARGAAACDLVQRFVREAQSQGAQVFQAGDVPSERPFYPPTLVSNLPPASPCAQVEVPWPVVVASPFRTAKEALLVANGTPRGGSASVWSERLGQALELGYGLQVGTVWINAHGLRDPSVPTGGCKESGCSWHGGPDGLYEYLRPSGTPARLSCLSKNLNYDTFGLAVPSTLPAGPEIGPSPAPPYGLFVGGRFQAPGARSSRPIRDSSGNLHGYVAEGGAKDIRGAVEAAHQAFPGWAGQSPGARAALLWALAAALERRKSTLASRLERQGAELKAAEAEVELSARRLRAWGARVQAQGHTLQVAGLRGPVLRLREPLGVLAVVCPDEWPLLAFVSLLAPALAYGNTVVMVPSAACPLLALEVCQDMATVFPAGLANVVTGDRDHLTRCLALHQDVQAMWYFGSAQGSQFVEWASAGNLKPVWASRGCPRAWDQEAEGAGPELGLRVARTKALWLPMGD
# UniProt Q9NUQ2: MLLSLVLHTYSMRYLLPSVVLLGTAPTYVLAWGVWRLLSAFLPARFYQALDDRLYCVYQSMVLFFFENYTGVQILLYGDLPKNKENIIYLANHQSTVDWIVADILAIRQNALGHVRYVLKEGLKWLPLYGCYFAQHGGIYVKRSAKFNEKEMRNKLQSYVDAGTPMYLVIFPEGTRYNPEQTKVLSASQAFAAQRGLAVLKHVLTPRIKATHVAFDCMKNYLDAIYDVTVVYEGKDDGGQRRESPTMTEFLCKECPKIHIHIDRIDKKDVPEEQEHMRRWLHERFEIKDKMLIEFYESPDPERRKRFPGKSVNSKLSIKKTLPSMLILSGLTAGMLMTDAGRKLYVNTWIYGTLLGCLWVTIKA
# UniProt Q9Y303: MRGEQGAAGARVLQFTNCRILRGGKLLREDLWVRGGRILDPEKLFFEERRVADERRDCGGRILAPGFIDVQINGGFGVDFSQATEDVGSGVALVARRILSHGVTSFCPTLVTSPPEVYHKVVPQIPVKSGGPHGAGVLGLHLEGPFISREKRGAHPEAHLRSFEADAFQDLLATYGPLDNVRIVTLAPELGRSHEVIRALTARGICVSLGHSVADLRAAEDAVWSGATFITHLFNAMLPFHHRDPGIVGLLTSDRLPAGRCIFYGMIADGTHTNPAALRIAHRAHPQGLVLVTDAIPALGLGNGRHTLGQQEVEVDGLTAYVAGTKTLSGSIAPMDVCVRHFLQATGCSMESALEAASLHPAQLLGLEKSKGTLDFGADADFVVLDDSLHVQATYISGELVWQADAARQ
# UniProt Q02040: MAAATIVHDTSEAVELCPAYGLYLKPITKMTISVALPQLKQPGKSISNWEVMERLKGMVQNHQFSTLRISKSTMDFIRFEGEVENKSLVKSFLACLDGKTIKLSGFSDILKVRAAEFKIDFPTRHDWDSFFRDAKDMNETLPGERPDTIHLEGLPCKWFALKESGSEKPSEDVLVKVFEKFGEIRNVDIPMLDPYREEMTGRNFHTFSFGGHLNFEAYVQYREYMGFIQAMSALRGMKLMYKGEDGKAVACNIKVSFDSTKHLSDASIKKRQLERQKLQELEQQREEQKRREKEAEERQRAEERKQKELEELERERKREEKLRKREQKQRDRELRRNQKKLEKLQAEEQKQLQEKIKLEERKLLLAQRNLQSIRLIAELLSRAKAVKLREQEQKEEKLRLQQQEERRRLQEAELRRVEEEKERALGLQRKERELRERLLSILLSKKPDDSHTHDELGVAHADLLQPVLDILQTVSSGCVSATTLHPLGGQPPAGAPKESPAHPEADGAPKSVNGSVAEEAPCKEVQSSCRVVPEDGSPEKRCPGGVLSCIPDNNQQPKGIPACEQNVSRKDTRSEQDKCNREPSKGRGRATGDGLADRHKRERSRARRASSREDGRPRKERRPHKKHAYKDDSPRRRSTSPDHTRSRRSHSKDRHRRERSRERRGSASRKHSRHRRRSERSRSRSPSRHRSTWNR
# UniProt Q9P2R3: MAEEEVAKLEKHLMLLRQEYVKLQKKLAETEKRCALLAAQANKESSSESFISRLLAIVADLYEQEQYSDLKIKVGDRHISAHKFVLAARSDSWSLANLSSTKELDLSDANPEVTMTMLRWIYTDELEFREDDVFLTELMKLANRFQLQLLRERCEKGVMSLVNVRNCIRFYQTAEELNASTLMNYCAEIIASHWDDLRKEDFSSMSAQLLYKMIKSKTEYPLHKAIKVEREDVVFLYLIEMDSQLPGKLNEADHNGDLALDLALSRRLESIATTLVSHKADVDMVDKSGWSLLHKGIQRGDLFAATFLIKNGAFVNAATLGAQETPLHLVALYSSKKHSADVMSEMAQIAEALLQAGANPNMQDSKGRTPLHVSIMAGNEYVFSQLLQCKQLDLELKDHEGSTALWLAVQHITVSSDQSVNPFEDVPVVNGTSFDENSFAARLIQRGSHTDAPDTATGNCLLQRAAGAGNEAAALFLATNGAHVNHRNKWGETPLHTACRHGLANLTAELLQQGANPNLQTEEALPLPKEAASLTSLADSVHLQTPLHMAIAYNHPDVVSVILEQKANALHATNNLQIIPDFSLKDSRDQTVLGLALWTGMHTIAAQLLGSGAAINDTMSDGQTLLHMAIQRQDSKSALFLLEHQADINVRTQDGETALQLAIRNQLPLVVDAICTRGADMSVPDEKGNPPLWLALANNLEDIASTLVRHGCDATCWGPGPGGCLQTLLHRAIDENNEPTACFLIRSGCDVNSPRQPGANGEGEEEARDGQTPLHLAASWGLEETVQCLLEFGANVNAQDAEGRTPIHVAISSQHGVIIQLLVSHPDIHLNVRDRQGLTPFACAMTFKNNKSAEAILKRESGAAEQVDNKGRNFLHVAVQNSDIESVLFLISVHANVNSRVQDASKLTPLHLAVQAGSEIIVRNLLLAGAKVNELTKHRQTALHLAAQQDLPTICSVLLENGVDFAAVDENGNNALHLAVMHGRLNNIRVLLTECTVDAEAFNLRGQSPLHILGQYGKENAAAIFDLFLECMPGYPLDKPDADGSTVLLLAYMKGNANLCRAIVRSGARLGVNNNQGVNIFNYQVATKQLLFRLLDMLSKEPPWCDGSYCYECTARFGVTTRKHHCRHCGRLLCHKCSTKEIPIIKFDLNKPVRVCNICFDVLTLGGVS
# UniProt P04075: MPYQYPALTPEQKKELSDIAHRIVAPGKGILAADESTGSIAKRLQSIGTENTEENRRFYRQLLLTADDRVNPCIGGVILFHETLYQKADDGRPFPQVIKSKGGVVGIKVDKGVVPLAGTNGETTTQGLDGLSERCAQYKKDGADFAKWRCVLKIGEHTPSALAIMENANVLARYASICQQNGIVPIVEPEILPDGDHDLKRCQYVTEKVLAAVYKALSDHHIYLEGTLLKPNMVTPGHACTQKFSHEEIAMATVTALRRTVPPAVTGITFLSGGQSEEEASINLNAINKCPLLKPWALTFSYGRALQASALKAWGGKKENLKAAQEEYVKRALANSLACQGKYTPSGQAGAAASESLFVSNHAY
# UniProt Q13686: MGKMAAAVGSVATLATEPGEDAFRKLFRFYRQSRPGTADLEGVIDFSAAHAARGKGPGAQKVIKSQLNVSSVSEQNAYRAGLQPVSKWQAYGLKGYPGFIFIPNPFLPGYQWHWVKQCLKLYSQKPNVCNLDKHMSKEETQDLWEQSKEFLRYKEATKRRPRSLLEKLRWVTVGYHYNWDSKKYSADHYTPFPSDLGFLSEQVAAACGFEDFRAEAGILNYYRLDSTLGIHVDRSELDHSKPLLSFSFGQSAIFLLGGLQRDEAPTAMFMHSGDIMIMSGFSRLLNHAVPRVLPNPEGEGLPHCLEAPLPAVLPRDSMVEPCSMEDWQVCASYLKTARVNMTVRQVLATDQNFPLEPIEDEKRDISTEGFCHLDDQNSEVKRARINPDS
# This is one part of the list.
# Compound: Cc1cc(ccc1-c1ccccc1)C(=O)N1CCCN(CC1)C(=O)CCl [compound 10]
# Assay: probe-labelled cysteine peptide fold change vs DMSO (competition) (log2 fold change); higher = less target engagement (more negative = stronger competition)
# Conditions: THP-1, incubation time: 4 h
# 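Note: competitive profiling in live THP-1 cells: cysteine peptides tagged with an iodoacetamide desthiobiotin (IA-DTB) probe, intensity after compound treatment relative to DMSO-treated cells.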
Target,probe-labelled cysteine peptide fold change (10 µM),probe-labelled cysteine peptide fold change (50 µM)
AKAP8L_Q9ULX6_128_YDSYESCDSR (UniProt Q9ULX6),-0.217,-0.44
AKR1A1_P14550_46_HIDCAAIYGNEPEIGEALK (UniProt P14550),0.0263,0.0157
AIP_O00170_122_HCCGVAQMR (UniProt O00170),-0.267,-2.09
ALDH16A1_Q8IZ83_249_KVAFCGAPEEGR (UniProt Q8IZ83),0.0423,-0.438
AGPAT5_Q9NUQ2_217_ATHVAFDCMK (UniProt Q9NUQ2),-0.142,0.157
AMDHD2_Q9Y303_261_CIFYGMIADGTHTNPAALR (UniProt Q9Y303),0.102,0.0697
AKAP17A_Q02040_563_GIPACEQNVSR (UniProt Q02040),-0.268,-0.209
AK2_P54819_40_LAENFCVCHLATGDMLR (UniProt P54819),-0.125,0.078
AHNAK_Q09666_1900_LEGDLTGPSVGVEVPDVELECPDAK (UniProt Q09666),0.0744,0.0974
AKR7A2_O43488_132_RLQCPQVDLFYLHAPDHGTPVEETLHACQR (UniProt O43488),-0.0268,-0.23
AKR1A1_P14550_187_QIDDILSVASVRPAVLQVECHPYLAQNELIAHCQAR (UniProt P14550),0.172,0.161
ANKFY1_Q9P2R3_389_TPLHVSIMAGNEYVFSQLLQCK (UniProt Q9P2R3),0.123,0.15
ALDOA_P04075_202_CQYVTEK (UniProt P04075),0.126,0.0285
ALKBH1_Q13686_371_DISTEGFCHLDDQNSEVKR (UniProt Q13686),-0.349,-0.464
